For orientation: AC50 means the concentration at which the activity in the assay is half-maximal.

The assay is described as follows: qHTS Assay to Find Inhibitors of Chronic Active B-Cell Receptor Signaling. To be noted: ABC-DLBCL IkBa-CBG/CBR reporter, luminescence ratio (green luciferase fused to IkBa over red control in TMD8 lymphoma cells), 4 h. The method in brief: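 Concentration-response series (up to 46 uM) were applied to TMD8 dual-reporter cells for 4 h at 37C with doxycycline. Green/red ratio, after filter-overlap correction, defined %Activity; red signal alone was normalised to basal cells and zero luminescence.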
(In general: In qHTS, concentration-response curves come from the screen itself.)

Setting [1] is: measured here: CBR red luminescence, cell number.
Where [2] appears, read: measured here: IkBa-CBG green luminescence.

SMILES strings stand for the structures. The list shows a part of the results. The main result of the screen is listed elsewhere. These columns were measured beside it and carry no call. The list favours compounds with an active or inconclusive main result. Words in brackets tell the shape of the fitted curve; partial curves, single points and poor fits give uncertain potencies.

As to `CCN(CC)c1ccc(/C=N/NC(=O)CCC(=O)NCc2ccccc2)c(O)c1`, the half-maximal activity concentration (AC50) under setting [1] was 20.6 µM [rising, partial curve]. For `c1ccc(-c2noc(-c3ccc4c(c3)OCO4)n2)nc1`, the AC50 under setting [1] is 4.61 µM [falling, full curve]. The same measure, in the same setting: the same measure for `CC(=O)Nc1ccc(C(=O)CCl)cc1`: 29.1 µM [falling, single point]; for `CN(c1ccccc1)c1ccc(/C=N/NC(=O)CC#N)cc1`: 0.58 µM [falling, full curve]; for `COc1cccc(/C=C2\Oc3cc(OCC(=O)N4Cc5ccccc5C[C@H]4C(=O)O)ccc3C2=O)c1`: 17.8 µM [falling, single point]. For the compound `CCS(=O)(=O)c1ncc(Cl)c(C(=O)Nc2ccc(C)cc2)n1`, the half-maximal activity concentration (AC50) is, setting by setting: under setting [1], 5.62 µM [falling, full curve]; under setting [2], 2.82 µM [rising, full curve, poor fit].

As to `CCN(CC)c1ccc(-n2c(C)cc(C=O)c2C)cc1`, the AC50 under setting [1] was 6.51 µM [rising, single point]. Same read-out and setting: the value for `COc1ccc(C2CC(c3cccs3)=NN2C(=O)CSC2=NCCS2)cc1` (stereo not drawn) was 35.5 µM [falling, single point]. Turning to `CC(C)(C)OC(=O)NCCCCCNC(=O)c1[nH]cnc1C(=O)Nc1ccc(Cl)cc1`, the AC50 under setting [1] is 29.1 µM [falling, single point] and the AC50 under setting [2] is 32.6 µM [rising, partial curve, poor fit]. For the compound `CCN(CC)C(=O)C(=O)c1cc(C)n(-c2ccc(F)cc2)c1C`, the AC50 under setting [1] is 35.5 µM [falling, single point]. As to `O=C(COc1ccc(Br)cc1)NNC(=S)NC(=O)c1ccccc1[N+](=O)[O-]`, under setting [1], the half-maximal activity concentration (AC50) is 16.4 µM [rising, partial curve]. On the same count and under the same terms, the same measure for `COc1cccc(/C=N/Nc2ncnc3c2ncn3Cc2ccccc2)c1O`: 1.03 µM [falling, partial curve]; for `Cc1ccc(C)c2c1cc(C)c1nnc(SCC(=O)c3cccs3)n12`: 0.82 µM [rising, full curve, poor fit]. Still for that read-out and setting: the same measure for `COc1ccc(C(=O)Nc2cc(C(F)(F)F)ccc2-n2cnc3ccccc32)cc1`: 20.6 µM [falling, single point]; for `O=[N+]([O-])c1cc(Cl)cc2c1nc(NCCO)c1ccccc12`: 20 µM [falling, single point].

`O=C(Nc1ccc(F)cc1)N1CCC(c2nc3c(nnn3Cc3cccc(Cl)c3)c(=O)[nH]2)CC1`: under setting [1], the concentration at half-maximal activity (AC50) is 35.5 µM [falling, single point].

Regarding `CCOc1cc(/C=C2\COc3ccccc3C2=O)cc(Br)c1OCC(=O)N(C)C`, under setting [1], the AC50 was 12.6 µM [falling, partial curve].

Turning to `N/C(=N\N=C\c1cccc([N+](=O)[O-])c1)c1nonc1N`, the AC50 under setting [1] is 6.31 µM [rising, full curve, poor fit].

With `O=C(O)COCc1nc2ccccc2s1`, the AC50 under setting [1] is 22.4 µM [rising, single point]. Still for that read-out and setting: the same measure for `Cc1c(CNCCC2=CCCCC2)c(C(=O)O)c(C)n1Cc1ccccc1`: 6.31 µM [rising, single point]; for `O=c1c2cn[nH]c2nc(SCc2cccc(Br)c2)n1-c1ccc(Cl)cc1`: 10 µM [falling, partial curve]. With `O=C(/C=C/c1ccncc1)c1cc(Cl)ccc1O`, the AC50 under setting [1] was 11.2 µM [falling, partial curve]. Same read-out and setting: the value for `Cc1c(C(=O)N2CCCC2)oc2ccc(Br)cc12` was 14.1 µM [rising, partial curve]; that for `Nc1nc2sc3c(c2c(=O)s1)CCCC3` was 2.06 µM [rising, single point]. Still for that read-out and setting: the value for `Cc1cc(NC(=O)Nc2ccc(Cl)cc2)n(-c2ccccc2)n1` was 7.94 µM [rising, partial curve, poor fit].

For the compound `O=C(CSc1nnc(COc2ccccc2)n1Cc1ccco1)Nc1ccc2c(c1)OCCO2`, the half-maximal activity concentration (AC50) under setting [1] was 8.2 µM [falling, partial curve, poor fit].

Turning to `COc1cc(OC)cc(C(=O)Oc2c(CN3CCOCC3)cc(Cl)c3cccnc23)c1`, the AC50 runs as follows: under setting [1], 3.98 µM [falling, full curve, poor fit]; under setting [2], 3.55 µM [falling, partial curve].

In the case of `COc1cc(C=O)ccc1OCc1ccc(Cl)nc1`, under setting [1], the AC50 is 35.5 µM [falling, single point]. For `N#Cc1c(CSCC(=O)O)cc(=O)n2c1[nH]c1ccccc12`, the AC50 under setting [1] was 2.51 µM [rising, partial curve, poor fit]. Same read-out and setting: the same measure for `COc1ccc(OC)c(CNC(=O)C2CCC(=O)N2C(C)C)c1` (stereo not drawn): 35.5 µM [rising, single point]; for `O=C(CCN1C(=O)S/C(=C\c2ccc(F)cc2)C1=O)Nc1ccc(O)cc1C(=O)O`: 14.1 µM [falling, partial curve, poor fit]; for `Cc1cccc(OCCCCn2c(CO)nc3ccccc32)c1`: 3.16 µM [rising, full curve].

Regarding `O=S(=O)(/N=C(/Nc1nc2ccccc2s1)c1ccccc1)c1ccccc1`, the half-maximal activity concentration (AC50) under setting [1] was 14.6 µM [falling, single point]. Same read-out and setting: the same measure for `COc1ccc2c(c1)c(CC(=O)OCC(=O)N(C)C)c(C)n2C(=O)c1ccc(Cl)cc1`: 17.8 µM [falling, single point]. The same measure, in the same setting: the same measure for `Cc1ccc(/C=C/C(=O)Nn2cnnc2)cc1`: 11.6 µM [falling, single point]. On to `FC(F)Oc1ccc(C2N=C(c3ccccc3)NO2)cc1` (stereo not drawn), for which, under setting [1], the AC50 is 0.112 µM [rising, full curve, poor fit]. Take `O=C1c2ccc(Oc3ccc([N+](=O)[O-])cc3)cc2C(=O)N1CCCO`: the AC50 under setting [1] is 35.5 µM [rising, single point]. For the compound `CCOc1cccc(N2C(=O)CC(NCc3ccc(S(N)(=O)=O)cc3)C2=O)c1` (stereo not drawn), the AC50 under setting [1] is 6.31 µM [falling, single point]. On the same count and under the same terms, the value for `CS(=O)(=O)c1ccc(C(=O)OCC(=O)c2ccc(Cl)s2)cc1` was 3.26 µM [rising, full curve, poor fit]; that for `Cc1ccc(S(=O)(=O)Oc2ccccc2/C=N/N=C(N)N)cc1` was 35.5 µM [falling, single point]. Same read-out and setting: the value for `O=C(CSc1nnc(Cc2cccs2)n1CCc1ccccc1)N1CCCc2ccccc21` was 23.1 µM [falling, partial curve]; that for `COC(=O)c1sccc1NC(=O)Nc1ccc(C)cc1C` was 15.8 µM [falling, partial curve, poor fit]. In the case of `COc1cccc(CNc2nc3nc(C)cc(C)n3n2)c1`, the concentration at half-maximal activity (AC50) under setting [1] is 11.6 µM [falling, partial curve]. The same measure, in the same setting: the same measure for `COc1ccc(CN2CCNC(=O)C2CC(=O)N(C)CC2CCOCC2)cc1C` (stereo not drawn): 0.794 µM [rising, full curve, poor fit]. On the same count and under the same terms, the same measure for `COc1cccc(NC(=O)CCN2C(=O)c3cccc([N+](=O)[O-])c3C2=O)c1`: 35.5 µM [falling, single point]. Still for that read-out and setting: the value for `O=C(NCCCN1CCOCC1)c1cc(-c2ccccc2F)no1` was 15.8 µM [falling, single point]. Consider `CC1C/C(=C/c2ccco2)C(=O)/C(=C/c2ccco2)C1` (stereo not drawn), for which the AC50 is, setting by setting: under setting [1], 16.4 µM [falling, partial curve, poor fit]; under setting [2], 23.1 µM [falling, partial curve, poor fit].

Regarding `Cn1c(=O)cc(OCC(=O)NCc2cccs2)c2ccccc21`, the concentration at half-maximal activity (AC50) under setting [1] was 15.8 µM [falling, partial curve, poor fit]. `Oc1ccc(Cl)cc1CNc1ccc(Br)cn1`: the half-maximal activity concentration (AC50) under setting [1] is 0.013 µM [rising, full curve, poor fit].

As to `CCCN(CCC)S(=O)(=O)c1ccc(C(=O)N2CCOCC2)cc1`, the AC50 under setting [1] is 0.0326 µM [rising, full curve, poor fit]. Turning to `COc1cccc(C2CC(c3c(Cl)cccc3Cl)n3nc(N)nc3N2)c1` (stereo not drawn), under setting [1], the concentration at half-maximal activity (AC50) is 14.6 µM [rising, partial curve, poor fit]. On the same count and under the same terms, the value for `COc1ccc(CCN2CC(C(=O)NCCc3cn[nH]c3)CCC2=O)cc1` (stereo not drawn) was 6.31 µM [rising, full curve, poor fit]; that for `CCCN(CCC)S(=O)(=O)c1ccc(NC(=O)Cc2cccs2)cc1` was 0.206 µM [rising, full curve, poor fit]. For the compound `COc1ccc(CCN2CCCC(CN(C)C(=O)c3ccoc3C)C2)cc1` (stereo not drawn), the AC50 under setting [1] is 31.6 µM [rising, single point].

For `COc1ccc(/C=C/C(=O)OCC(=O)c2ccccc2F)cc1`, the AC50 under setting [1] is 3.66 µM [rising, partial curve, poor fit].

Regarding `COc1nnc(-c2ccc(N3CCCCC3)c(NC(C)=O)c2)c2ccccc12`, the AC50 under setting [1] was 9.2 µM [falling, partial curve, poor fit]. Same read-out and setting: the same measure for `CCN(CC)CCCNC(=O)CSc1c2c(nc3cc(Cl)ccc13)CCCC2`: 5.01 µM [falling, partial curve, poor fit]; for `CC(C)C(=O)Nc1ccc2nn(-c3ccc(F)cc3)nc2c1`: 2.51 µM [rising, full curve, poor fit]; for `COc1ccc(CC(=O)OCC(=O)NC(=O)NC(C)C)cc1`: 13 µM [rising, partial curve, poor fit].

Consider `Cc1nn(-c2ccccc2)c(C)c1C(=O)OCC(=O)Nc1cccc(S(N)(=O)=O)c1`, for which the AC50 under setting [1] was 7.31 µM [falling, single point]. As to `CCCOC(=O)C1=C(C)NC(=O)NC1c1ccc(Br)s1` (stereo not drawn), under setting [1], the AC50 was 12.6 µM [rising, partial curve, poor fit].

Turning to `COc1ccc(-c2nc(-c3ccncc3)no2)c(OC)c1`, the AC50 under setting [1] was 0.282 µM [falling, full curve].

For `O=C(O)C1CCCCN1C(=O)c1cc2c(s1)CCCCC2` (stereo not drawn), the AC50 under setting [1] is 6.51 µM [falling, partial curve].

Turning to `CCC(=O)N1CCCc2cc(S(=O)(=O)N3CCN(c4ccccn4)CC3)ccc21`, under setting [1], the AC50 is 0.103 µM [rising, full curve, poor fit].

The values above are taken from PubChem BioAssay AID493014 (National Center for Advancing Translational Sciences (NCATS), 2011).
